This series has as its system Golden Syrian hamsters fed with high-fat diet. Nature of the series: High-fat diet hamster experiment, 10 weeks gavage. As to conditions: gavage 20 mg/kg body weight daily. Type of series: in vivo, Golden Syrian hamster. The procedure:
24 male Golden Syrian hamsters (hamsters for short) used in the animal experiment were purchased from Beijing Vital River Laboratory Animal Technology Co., Ltd., weighing 110-120 g, and aged 8 weeks.
After acclimation for a period of time, they were randomly divided into 3 groups, each with 8 animals, and the grouping and experiments were carried out as follows:
Every day starting from Day 1: • Normal group (NOR): take normal-chow diet freely, and gavage the same amount of CMC-Na solution as the MC group; • High fat group (HFD): take high-fat chow diet freely, and gavage the same amount of CMC-Na solution as the MC group; • MC group: take high-fat chow diet freely, and gavage MC (dissolved in CMC-Na solution) at a dose of 20 mg/kg body weight.
The weight and food intake of the hamsters were measured every week. After 10 weeks, tissue samples or serum samples were collected and the following analysis was performed.
TC and TG in the liver were extracted based on the Folch method, the TC and TG detection kits produced by Nanjing Jiancheng Bioengineering Institute was used to detect the contents of TC and TG in liver tissue according to the method provided in the instructions.
Cobas8000 E602 full-automatic biochemical analyzer (Roche Diagnostics Co., Ltd., Germany) was used to measure TC and TG in serum of collected serum samples.

Among the data in patent publication US12544355B2, “Use of monascinol in preparation of fat-reducing product” (TIANJIN UNIVERSITY OF SCIENCE AND TECHNOLOGY, priority 2019, dated 2026) are Food intake and Kidney weight values, retold here.

Marks after values point to notes of the source that are not given here.

Turning to `C/C=C/C1=CC2=C(CO1)C[C@]1(C)OC(=O)[C@H](C(O)CCCCC)[C@H]1C2` (some centres unmarked) [MC, Monascinol], the Food intake is reported as 6.71 ± 0.35^b g and the Kidney weight is given as 0.97 ± 0.04^a g.
